## Library screen at single concentrations

Amino acid sequences for entries named in this document (tags omitted). Residues count along the entry.
UniProt Q8IDJ8, 1-583: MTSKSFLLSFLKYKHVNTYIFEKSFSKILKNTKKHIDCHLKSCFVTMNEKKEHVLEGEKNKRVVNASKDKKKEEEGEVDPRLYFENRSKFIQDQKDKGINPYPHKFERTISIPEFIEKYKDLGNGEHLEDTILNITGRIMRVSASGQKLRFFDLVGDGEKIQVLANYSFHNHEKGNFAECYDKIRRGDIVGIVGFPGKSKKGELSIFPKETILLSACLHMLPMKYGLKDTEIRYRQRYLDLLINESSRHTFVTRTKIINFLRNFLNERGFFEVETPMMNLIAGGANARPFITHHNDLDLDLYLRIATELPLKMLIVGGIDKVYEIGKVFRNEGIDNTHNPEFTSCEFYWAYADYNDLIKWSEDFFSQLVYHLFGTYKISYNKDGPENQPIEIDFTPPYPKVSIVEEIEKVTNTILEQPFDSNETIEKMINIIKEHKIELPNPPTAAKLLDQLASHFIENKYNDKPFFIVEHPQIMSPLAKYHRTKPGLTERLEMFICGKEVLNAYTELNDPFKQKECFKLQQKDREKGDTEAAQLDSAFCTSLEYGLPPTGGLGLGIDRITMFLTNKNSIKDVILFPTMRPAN
UniProt P9WPC5, whole entry: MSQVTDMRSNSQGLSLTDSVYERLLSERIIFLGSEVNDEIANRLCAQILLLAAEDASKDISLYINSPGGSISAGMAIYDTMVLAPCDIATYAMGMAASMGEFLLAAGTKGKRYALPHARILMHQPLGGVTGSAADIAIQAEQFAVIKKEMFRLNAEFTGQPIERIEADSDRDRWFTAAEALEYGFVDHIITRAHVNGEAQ
UniProt P9WPC3, whole entry partner: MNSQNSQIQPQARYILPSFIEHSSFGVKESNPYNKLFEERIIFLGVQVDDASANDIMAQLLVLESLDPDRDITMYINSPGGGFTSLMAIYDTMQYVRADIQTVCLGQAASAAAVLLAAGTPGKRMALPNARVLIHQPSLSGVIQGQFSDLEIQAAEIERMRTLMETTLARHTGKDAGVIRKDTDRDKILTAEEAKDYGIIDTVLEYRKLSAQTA
UniProt P9WFT3, whole entry: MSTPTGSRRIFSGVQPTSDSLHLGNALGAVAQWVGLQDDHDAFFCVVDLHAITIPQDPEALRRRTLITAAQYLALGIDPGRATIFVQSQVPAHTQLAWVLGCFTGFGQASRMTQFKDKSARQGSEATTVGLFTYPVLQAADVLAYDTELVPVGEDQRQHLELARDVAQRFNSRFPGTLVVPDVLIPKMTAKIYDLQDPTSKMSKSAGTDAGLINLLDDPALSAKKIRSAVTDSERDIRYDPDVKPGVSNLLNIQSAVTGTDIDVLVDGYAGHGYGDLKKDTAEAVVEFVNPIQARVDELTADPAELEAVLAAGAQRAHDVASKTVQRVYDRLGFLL

The filed quantity is “Percent Effect” (%). The record does not define 0% and 100%; most values in the screen are far below 50% and negative numbers occur (in some assays of this library far below -100). This is an unselected part of the compounds tested. A dash means the value is not listed here; it may have been measured.

A: 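Lysine-tRNA ligase, Plasmodium falciparum 3D7 (UniProt Q8IDJ8). Enzyme assay of the cytosolic lysyl-tRNA synthetase in 384-well plates, read by luminescence. Compounds at 30 µM. Higher reads as stronger inhibition, judged from the few compounds that gave an IC50. Of about 69,000 compounds tested this way, about 49 (0.071%) reached 50% or more in at least one test.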
B: 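ClpP1P2, Mycobacterium tuberculosis (UniProt P9WPC5 and UniProt P9WPC3). Protease assay of ClpP1P2, read by the AMC dye that it sets free. Concentration: 50 µM. Direction is inferred from only a few compounds that gave an IC50; most scored high, so higher reads as stronger inhibition. Most other retested compounds had strongly negative values. Of about 69,000 compounds tested this way, about 10 (0.015%) reached 50% or more in at least one test.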
C: 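Enzyme assay of tryptophanyl-tRNA synthetase; the read-out is not stated. Target: Tryptophan-tRNA ligase, Mycobacterium tuberculosis (UniProt P9WFT3). Concentration: 10 µM. Higher most likely means stronger inhibition; the record gives no direction and few retests gave an IC50. Of about 65,000 compounds tested this way, about 64 (0.098%) reached 50% or more in at least one test.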

compound,A,B,C
Cc1cccc(N2CCN(C(=O)CNCCn3cccn3)CC2)c1,-5.774,11.85,-4.379
CC(C)(C)NC(=O)CN1CCCC(c2ccc(C(=O)O)cc2)C1 (centres unmarked),6.032,-9.647,5.358
Cc1cc(S(=O)(=O)N(CC(N)=O)CC(C)C)ccc1Br,3.095,0.5881,3.799
CC(=O)Nc1ccc(S(=O)(=O)N2CCOC(Cn3ccnc3)C2)cc1 (centres unmarked),-1.198,-6.678,-6.131
CC(Cc1c(F)cccc1F)NC(=O)NCc1ncnn1C (centres unmarked),3.645,10.72,-0.08489
CN(Cc1cccnc1)C[C@H]1OC[C@@H]2CCN(C(=O)C3CC3)C[C@@H]21,6.84,-5.177,-1.226
Cc1cc(-c2cnc(NCc3ccccn3)nc2C(C)C)on1,3.707,0.1765,-
Cc1csc(C(Cc2ccsc2)NC(=O)Cn2cccnc2=O)n1 (centres unmarked),-1.815,-7.406,-
CC(=O)N1CCC(CCNC(C)c2cc(F)cc(F)c2)CC1 (centres unmarked),3.187,-6.613,-3.726
CN(C(=O)c1cccc(OCC(F)F)n1)c1ccc2c(c1)CCO2,0.9316,11.41,3.995
Cc1ccc(-c2nc(CN3CCC(N4CCNC4=O)CC3)co2)cc1,3.14,-35.51,-3.302
Cc1nc(C(=O)N(CC(=O)N(C)C)CC(F)(F)F)c2ccccn12,3.839,-412.1,-2.016
CN1CCC(N2CCN(C(C(=O)O)c3cccc4c3OCC4)CC2)CC1 (centres unmarked),7.472,-3.848,7.221
Cc1ccc(CNC(=O)C2CCNC(=O)C2)c(OCCC(C)C)c1 (centres unmarked),-1.384,-6.666,-2.581
O=S(=O)(CC1CCOCC1)NCc1ccnc(O)c1,-1.211,-0.6517,-0.1211
CSc1cccc(CN(C)C(=O)Cn2ncc(N3CCCC3)cc2=O)c1,2.981,-21.38,-5.475
CS(=O)(=O)N1C[C@@H]2COC[C@@H](CC(=O)N3CCCO3)[C@@H]2C1,-0.1141,-0.889,-2.164
FC(F)(F)Cn1nnnc1SCCN1CCCCC1,6.337,-1.091,-6.172
O=C(c1cnccn1)N1CCCC(Cc2cncc3ccccc23)C1 (centres unmarked),0.9268,-1.531,-2.824
COCCC(=O)N(CCC#N)c1ccc(C)c(C)c1,-1.767,1.058,-4.601
Cc1cccc(CN2C[C@@H]3CN(C(=O)NC(C)C)C[C@@H]3C2=O)c1,6.566,-3.083,-1.574
CC(NC(=O)NCc1cccs1)c1ccc2c(c1)CCC(=O)N2 (centres unmarked),0.05533,-17.46,1.015
CN(C(=O)c1ccc(C#N)cc1)c1nnc(C2CCOC2)s1 (centres unmarked),-1.25,-11.13,-3.982
NC(=O)C1CCN(C(=O)c2cccc(OCc3cscn3)c2)CC1,-0.1407,0.4235,-1.411
COCc1nc(C(=O)NS(=O)(=O)c2ccc(F)cc2F)cs1,0.435,-1.14,-7.219
CCCc1cc(NC2CCN(Cc3ccccn3)CC2)n2nccc2n1,4.442,-1.406,0.4461
Cc1nc(CN2CCc3ncnc(-c4ccc(F)cc4)c3CC2)cs1,2.783,-9.334,4.446
COc1ccccc1OCc1cc(C(=O)N2CCC(C(C)O)CC2)n[nH]1 (centres unmarked),4.512,-1.612,0.277
CC(C)(C)c1nc(CN2CCCC(c3noc(C4CC4)n3)C2)no1 (centres unmarked),1.983,-27.71,-10.17
Cn1cc(CN2CCOC(c3cccc(-c4cccc(F)c4)n3)C2)cn1 (centres unmarked),0.1068,-40.6,-3.825
Cc1nonc1CC(=O)N1C[C@@H]2CC[C@H](C1)N(Cc1ccccc1)C2=O,-5.019,-3.427,-3.793
CN(C)CC1CN(Cc2ccsc2)Cc2nccn2C1 (centres unmarked),7.195,7.65,-2.013
CCCNc1ccc(C(=O)NCCc2cccc(OC)c2)cn1,2.218,-5.989,-
COc1ccnc(N2CCC3(CC2)[C@H](O)C[C@@H]3OCCN(C)C)n1,5.215,-7.362,2.522
Cc1cnn(CC2CCCN2C(=O)Cc2cccs2)c1 (centres unmarked),2.778,-3.454,1.789
Cc1cnc(NCC(C)(C)N2CCCCC2)nc1,1.769,-12.28,-2.42
CN1CC(=O)N(c2ccsc2)CC12CCN(C(=O)c1ccccc1)C2 (centres unmarked),1.995,6.66,-2.205
Cc1nc(N2CCN(C(=O)c3ccsc3)CC2)c2cnn(C)c2n1,1.758,2.001,0.8607
O=C(C1CCOCC1)N1CCO[C@H]2[C@@H](OCc3ccncc3)CC[C@@H]21,5.407,-4.837,2.627
C[C@@H](O)CNC(=O)CCc1nc2cccnc2[nH]1,-2.546,-14.58,-3.431
O=C(O)c1cc(-c2cn[nH]c2)cc(S(=O)(=O)N2CCSCC2)c1,10.83,-4.109,-2.213
COCC1CC2(CCN(Cc3cnn(C)c3)CC2)CN1C(C)C (centres unmarked),3.087,2.524,-1.63
CCCS(=O)(=O)NC(C)C(=O)NCc1ccc(N2CCN(C)CC2)nc1 (centres unmarked),0.3882,-33.36,-7.345
CC(Nc1nccc(CCC(F)(F)F)n1)c1nc(-c2ccncc2)no1 (centres unmarked),1.989,1.961,-4.215
Cc1noc([C@]23COC[C@H]2CN(C(=O)Cc2ccsc2)C3)n1,3.486,-8.056,-
COc1cc(C2CC(=O)Oc3cc(C)[nH]c(=O)c32)ccc1OC(F)F (centres unmarked),-1.318,12,0.000009
CN1CCN(CCCN(C)S(=O)(=O)CC2CCCCC2)CC1,6.532,-17.37,-8.637
CNC(=O)c1cn[nH]c1C1CCCN1C(=O)c1cccnc1 (centres unmarked),1.774,2.004,-5.043
Cc1sc(Br)cc1S(=O)(=O)NCCN,4.198,-5.597,-3.138
CN(C)c1cc(CNC(=O)Nc2nccs2)ccn1,-2.104,-7.077,-5.849
CN1CCCC2(CCN(c3cccc(C#N)n3)C2)C1=O (centres unmarked),4.809,-17.07,-5.027
CCC1=N[C@@]2(CC[C@@H]3CN(CC4CC4)C[C@@H]32)C(=O)N1C,3.272,3.535,4.098
CC(C)CNC(=O)CNc1c(NCc2ccncc2)c(=O)c1=O,6.798,-11.23,-0.9492
COc1cccc(S(=O)(=O)N2CCn3cnc(COCC4CC4)c3C2)c1,0.2848,-4.557,10.6
CC(C)N(C)Cc1cnc2n1CCN(Cc1ccsc1)C2,-0.6187,-15.44,-1.357
Cc1cc(NCC2(O)CCOCC2)c2ccccc2n1,4.231,-5.338,-0.8942
CCOc1ccc(S(=O)(=O)NCCCc2ccc(N(C)C)cc2)cc1C,5.874,9.51,-5.699
CC(C)(C)c1csc(CCNC(=O)C(c2ccccc2)n2cnnn2)n1 (centres unmarked),3.022,0.2689,-6.62
Cc1nc(CN2C[C@@H](CN3CCOCC3)[C@@H](CO)C2)c2ccccn12,1.699,-7.124,14.14
CC(O)CN1CCN(C(=O)c2cccc(CC#N)c2)CC1 (centres unmarked),-0.939,0.6257,1.359
CCn1cc(CN2CCC(NS(C)(=O)=O)CC2)cc1C#N,-0.9265,-11.98,-1.598
CCN(CC)c1nc2ccsc2c(=O)n1CCC(=O)NC1CCCC1,2.071,9.89,-0.5833
COc1ccc(-c2csc(N)c2C#N)cc1,1.14,-13.23,-5.112
CN1C(=O)[C@H]2CC[C@@H]1CN(C(=O)Nc1ccccc1C(F)(F)F)C2,3.095,-12.99,-0.4112
COCCN(Cc1ccoc1)S(=O)(=O)c1ccc(F)c(C)c1,-0.09803,-14.85,3.118
CN1CCN(C(=O)c2cc3occc3n2Cc2ccccc2F)CC1,0.9912,-19.39,-2.309
CCN(CC)CCn1cc(NC(=O)CNc2ccccc2OC)cn1,-7.443,8.212,3.01

Some entries from above, unchanged:

With Cc1cnn(CC2CCCN2C(=O)Cc2cccs2)c1 (centres unmarked) the screen gave A: 2.778%; B: -3.454%; C: 1.789%.
With CC(C)CNC(=O)CNc1c(NCc2ccncc2)c(=O)c1=O the screen gave A: 6.798%; B: -11.23%; C: -0.9492%.
With Cc1cc(-c2cnc(NCc3ccccn3)nc2C(C)C)on1 the screen gave A: 3.707%; B: 0.1765%.
With CCCc1cc(NC2CCN(Cc3ccccn3)CC2)n2nccc2n1 the screen gave A: 4.442%; B: -1.406%; C: 0.4461%.
With CCN(CC)CCn1cc(NC(=O)CNc2ccccc2OC)cn1 the screen gave A: -7.443%; B: 8.212%; C: 3.01%.
With Cc1nc(CN2C[C@@H](CN3CCOCC3)[C@@H](CO)C2)c2ccccn12 the screen gave A: 1.699%; B: -7.124%; C: 14.14%.
With Cc1csc(C(Cc2ccsc2)NC(=O)Cn2cccnc2=O)n1 (centres unmarked) the screen gave A: -1.815%; B: -7.406%.
With COc1cc(C2CC(=O)Oc3cc(C)[nH]c(=O)c32)ccc1OC(F)F (centres unmarked) the screen gave A: -1.318%; B: 12%; C: 0.000009%.

From ChEMBL document CHEMBL3988442, “University of Dundee, Small-Polar-MMV Screening Library” (2021).